From publication PMC7337521

B1: RNH1 (protein, UniProt P13489 1-461)
chain: MSLDIQSLDIQCEELSDARWAELLPLLQQCQVVRLDDCGLTEARCKDISSALRVNPALAELNLRSNELGDVGVHCVLQGLQTPSCKIQKLSLQNCCLTGAGCGVLSSTLRTLPTLQELHLSDNLLGDAGLQLLCEGLLDPQCRLEKLQLEYCSLSAASCEPLASVLRAKPDFKELTVSNNDINEAGVRVLCQGLKDSPCQLEALKLESCGVTSDNCRDLCGIVASKASLRELALGSNKLGDVGMAELCPGLLHPSSRLRTLWIWECGITAKGCGDLCRVLRAKESLKELSLAGNELGDEGARLLCETLLEPGCQLESLWVKSCSFTAACCSHFSSVLAQNRFLLELQISNNRLEDAGVRELCQGLGQPGSVLRVLWLADCDVSDSSCSSLAATLLANHSLRELDLSNNCLGDAGILQLVESVRQPGCLLEQLVLYDIYWSEEMEDRLQALEKDKPSLRVIS
B2: G3BP2 (protein, UniProt Q9UN86 1-482)
chain: MVMEKPSPLLVGREFVRQYYTLLNKAPEYLHRFYGRNSSYVHGGVDASGKPQEAVYGQNDIHHKVLSLNFSECHTKIRHVDAHATLSDGVVVQVMGLLSNSGQPERKFMQTFVLAPEGSVPNKFYVHNDMFRYEDEVFGDSEPELDEESEDEVEEEQEERQPSPEPVQENANSGYYEAHPVTNGIEEPLEESSHEPEPEPESETKTEELKPQVEEKNLEELEEKSTTPPPAEPVSLPQEPPKAFSWASVTSKNLPPSGTVSSSGIPPHVKAPVSQPRVEAKPEVQSQPPRVREQRPRERPGFPPRGPRPGRGDMEQNDSDNRRIIRYPDSHQLFVGNLPHDIDENELKEFFMSFGNVVELRINTKGVGGKLPNFGFVVFDDSEPVQRILIAKPIMFRGEVRLNVEEKKTRAARERETRGGGDDRRDIRRNDRGPGGPRGIVGGGMMRDRDGRGPPPRGGMAQKLGSGRGTGQMEGRFTGQRR
B3: DDX1 (protein, UniProt Q92499 1-740)
chain: MAAFSEMGVMPEIAQAVEEMDWLLPTDIQAESIPLILGGGDVLMAAETGSGKTGAFSIPVIQIVYETLKDQQEGKKGKTTIKTGASVLNKWQMNPYDRGSAFAIGSDGLCCQSREVKEWHGCRATKGLMKGKHYYEVSCHDQGLCRVGWSTMQASLDLGTDKFGFGFGGTGKKSHNKQFDNYGEEFTMHDTIGCYLDIDKGHVKFSKNGKDLGLAFEIPPHMKNQALFPACVLKNAELKFNFGEEEFKFPPKDGFVALSKAPDGYIVKSQHSGNAQVTQTKFLPNAPKALIVEPSRELAEQTLNNIKQFKKYIDNPKLRELLIIGGVAARDQLSVLENGVDIVVGTPGRLDDLVSTGKLNLSQVRFLVLDEADGLLSQGYSDFINRMHNQIPQVTSDGKRLQVIVCSATLHSFDVKKLSEKIMHFPTWVDLKGEDSVPDTVHHVVVPVNPKTDRLWERLGKSHIRTDDVHAKDNTRPGANSPEMWSEAIKILKGEYAVRAIKEHKMDQAIIFCRTKIDCDNLEQYFIQQGGGPDKKGHQFSCVCLHGDRKPHERKQNLERFKKGDVRFLICTDVAARGIDIHGVPYVINVTLPDEKQNYVHRIGRVGRAERMGLAISLVATEKEKVWYHVCSSRGKGCYNTRLKEDGGCTIWYNEMQLLSEIEEHLNCTISQVEPDIKVPVDEFDGKVTYGQKRAAGGGSYKGHVDILAPTVQELAALEKEAQTSFLHLGYLPNQLFRTF
B4: BANF1 (protein, UniProt O75531 1-89)
chain: MTTSQKHRDFVAEPMGEKPVGSLAGIGEVLGKKLEERGFDKAYVVLGQFLVLKKDEDLFREWLKDTCGANAKQSRDCFGCLREWCDAFL
B5: TIA-1 (protein, UniProt P31483 1-386)
chain: MEDEMPKTLYVGNLSRDVTEALILQLFSQIGPCKNCKMIMDTAGNDPYCFVEFHEHRHAAAALAAMNGRKIMGKEVKVNWATTPSSQKKDTSSSTVVSTQRSQDHFHVFVGDLSPEITTEDIKAAFAPFGRISDARVVKDMATGKSKGYGFVSFFNKWDAENAIQQMGGQWLGGRQIRTNWATRKPPAPKSTYESNTKQLSYDEVVNQSSPSNCTVYCGGVTSGLTEQLMRQTFSPFGQIMEIRVFPDKGYSFVRFNSHESAAHAIVSVNGTTIEGHVVKCYWGKETLDMINPVQQQNQIGYPQPYGQWGQWYGNAQQIGQYMPNGWQVPAYGMYGQAWNQQGFNQTQSSAPWMGPNYGVQPPQGQNGSMLPNQPSGYRVAGYETQ

Target: G3BP1-APEX fusion protein (UniProt Q13283)
Assay: proximity labelling; G3BP1-APEX (heavy SILAC) against CTRL-APEX (light SILAC) in PC-3 cells, vehicle or arsenite (200 uM, 2 h); biotin tagging, streptavidin pulldown, LC-MS/MS (Orbitrap); triplicates

| binding | Binder |
| --- | --- |
| binds | B1 |
| binds | B2 |
| binds | B3 |
| binds | B4 |

Target: G3BP1-APEX fusion protein (UniProt Q13283)
Assay: proximity labelling; G3BP1-APEX transiently expressed in PC-3 cells, vehicle or arsenite (200 uM, 2 h); biotin-tyramide 500 uM 30 min and H2O2 1 mM 1 min; biotinylated proteins pulled down with Dynabeads M-280 Streptavidin; Western blot

| binding | Binder |
| --- | --- |
| binds | B2 |
| binds | B5 |

No constants are given. Whether binding was seen depends on the method and setting. Binding seen in cells or lysates may run through a third protein. Here binding means that the protein was enriched with, or labelled near, the bait; the list need not be complete.
